Assay results reported in paper PMC4219657, “Structural and Mechanistic Basis of Zinc Regulation Across the E. coli Zur Regulon” (PLoS Biology, 2014).

Key:
Assay in all cases: EMSA
[1] = biological target: T1, Zur C103S (Escherichia coli) (UniProt P0AC51); settings: EMSA: 10 mM Tris pH 8.0, 10 mM NaCl, 100 mM K-glutamate, 167 mM KCl, 1.5 mM MgCl2, 1 mM CaCl2, 50 uM ZnSO4, 1 mM DTT, 0.1 ug/ml BSA, 2 ug/ml salmon sperm DNA, recombinant protein, label: 5'-Cy5 on strand 1
T1 sequence (looked up, limits assumed): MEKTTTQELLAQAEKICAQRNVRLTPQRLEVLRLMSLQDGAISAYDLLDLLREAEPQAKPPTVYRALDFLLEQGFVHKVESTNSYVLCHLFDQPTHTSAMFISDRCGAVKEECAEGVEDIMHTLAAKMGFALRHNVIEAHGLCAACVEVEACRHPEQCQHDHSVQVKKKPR

[2] = biological target: T2, Zur C88S (Escherichia coli) (UniProt P0AC51); settings: EMSA: 10 mM Tris pH 8.0, 10 mM NaCl, 100 mM K-glutamate, 167 mM KCl, 1.5 mM MgCl2, 1 mM CaCl2, 50 uM ZnSO4, 1 mM DTT, 0.1 ug/ml BSA, 2 ug/ml salmon sperm DNA, recombinant protein, label: 5'-Cy5 on strand 1
T2 sequence (looked up, limits assumed): T1 sequence (looked up, limits assumed) with C88S, S103C

[3] = biological target: T3, Zur D49A (Escherichia coli) (UniProt P0AC51); settings: 50 uM ZnSO4, Kd2, second dimer; EMSA: 10 mM Tris pH 8.0, 10 mM NaCl, 100 mM K-glutamate, 167 mM KCl, 1.5 mM MgCl2, 1 mM CaCl2, 50 uM ZnSO4, 1 mM DTT, 0.1 ug/ml BSA, 2 ug/ml salmon sperm DNA; recombinant protein; label: 5'-Cy5 on strand 1
T3 sequence (looked up, limits assumed): T1 sequence (looked up, limits assumed) with D49A, S103C

[4] = biological target: T4, Zur R52A (Escherichia coli) (UniProt P0AC51); settings: 50 uM ZnSO4, Kd2, second dimer; EMSA: 10 mM Tris pH 8.0, 10 mM NaCl, 100 mM K-glutamate, 167 mM KCl, 1.5 mM MgCl2, 1 mM CaCl2, 50 uM ZnSO4, 1 mM DTT, 0.1 ug/ml BSA, 2 ug/ml salmon sperm DNA; recombinant protein; label: 5'-Cy5 on strand 1
T4 sequence (looked up, limits assumed): T1 sequence (looked up, limits assumed) with R52A, S103C

[5] = Zn-loaded protein, no excess Zn

Sequence: CCGAATATGAGAAGTGTGATATTATAACATTTCATGACTACTGCAAGACGG (double strand) [PznuABC 51 bp]
- binding result [1, 5]: no binding
- binding result ([1]; excess Zn, 50 uM ZnSO4): binds more weakly
- binding result [2, 5]: no binding
- binding result ([2]; excess Zn, 50 uM ZnSO4): binds more weakly
- Kd [3]: 65 nM
- Kd [4]: 220 nM

Changes are numbered by the printed parent chain. Construct, isoform or probe ends are uncertain for at least one entry. For part of these data: A negative result means that nothing was seen under these conditions. Where a protein sequence is shown, tags need not be part of it. For part of these data: Weaker means in comparison with the reference protein, sequence or condition of that experiment.
